Article PMC7343241
No constants are given. Whether binding was seen depends on the method and setting. In cells and extracts the contact can be indirect. These calls come from enrichment with a bait or labelling near it, and not all partners need be listed.

The chains behind the UniProt entries cited, without tags or fusion partners. Where a name states a change or a piece, a line headed by the entry shows the natural chain unless it says otherwise.
UniProt Q93640: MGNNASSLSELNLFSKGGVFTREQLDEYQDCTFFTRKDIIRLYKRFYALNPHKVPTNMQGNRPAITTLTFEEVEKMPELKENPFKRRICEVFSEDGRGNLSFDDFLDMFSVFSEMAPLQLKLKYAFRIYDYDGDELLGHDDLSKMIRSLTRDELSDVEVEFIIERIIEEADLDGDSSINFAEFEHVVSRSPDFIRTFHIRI

Tests used:
[1] = biological target: FLAG::CALM-1 (transgenic worms) (C. elegans) (UniProt Q93640); assay: affinity purification with mass spectrometry; FLAG-tagged CALM-1 from whole lysates of transgenic worms on anti-FLAG M2 magnetic beads; FLAG::GFP as negative control
[2] = biological target: CALM-1::FLAG (transgenic worms) (C. elegans); assay: as above

binding [1]: binds
binding [2]: binds
B1: TMC-2 (endogenous, worm lysate) (protein, UniProt Q11069 1-1203)
chain: MPKSGAHQPLVRHDTDDGGETGQSVKSLADVSEEEIDSRMSRRSSVIADLLSLFRRSSSVLVRPHTRLGNPNFDDDDDEFDEEDDKEASKDRILKKIQQKKEIIQKLRGQPWYMKRKRRTLKVAQKHLQQQEAKVSKARLYKAEAGRRLTQASRWLDNLKIYLIPWEAKIRKIESHFGSVVSSYFTFHRWVLGVNITITFIMCMFVVIPEWLADSRTQFGDDRYNKTKAIKVMPPAVRARADELSTVWDFGGYFQYSLLFYGFYSKETFFGETIKYRVPVAYFFCNIFILGFSLFIILRKMAANNRRGTLSSGKTQQYLFNWKAFTGWDYTIGNPETAGNVYMANVIKFREAINDDKQKPSDKHPWIRFVARVLTNLFICAMYVFSIWAIMQCGTLKGEHFFAQNATAITISLITLVFPNIFDLLGKIEKLHPRNALRFQLGRVLVLYILNYYTLIYSLMLQLEHLQKEKNASDNPISALGHPGDAIGRTIRETVLPRYPVDNNPHTYYSYAPVTTTPIPATSSWTTVLPDFGPFGVYNPKASVTKDDTVFSSPVVETHMFGPNSDWNETTVNAASPTGATTRASLRMSQGGLCWETIIGQEITKLVTMDLYMTVASIFLIDFLRGLACRYLNLYWPWDLERTFPEYGEFKVAENVLHLVNNQGMIWLGLFFVPLLPMLNNIKLIILMYIRGWAAMTCNVPASQIFRASRSSNFFFALLILFLFLCTLPVGFVIASKTPSKSCGPFGNQSFFYSVITDVLHENLDKTLVNGIKYSLSPGIIIPVLVLLSLVIYFLIAMVTGLSQANQDLSFQLMVERTEEKKKIFELAGGKKKKSKDNTFGKQKPKQLLPPPTKGVSSDDDSQHNRSTAKSVSGRQFVPSLGSVSEVDHSTGEEQSSDSESTTSSLPPKLSLRQRFLVCIGWADPNKYGRHDDIEMEEGGGRLRELSTGSETDSDDEDSEKSNRDMSYRTAIQSFDQNSQSASASSSKSTTTAPSNSEMRIEITENPLHTYITPLRIEKKSSASSSSSSHQPSSSIEKQAARRLLQPISTTHNIRYGVATVENSSQDPTRPPSTDDSLGDPALHEPLWANLNPHSSYTSAMMSPIMNEVMSNDETTDDEKGRLIPDRPPIPHSPRELKRLKREKDQQSESGSKPSTPRPPRFRISMSPPRKPPSEKNDSDSSNRKYEMRVEKSPKKPKKSDND
